Assay results from article PMC11286965.
No constants are given. Whether binding was seen depends on the method and setting. Binding seen in cells or lysates may run through a third protein. Some binding calls cover weakened binding; strength is not graded here.

Amino acid sequences for entries named in this document (tags omitted).
UniProt Q16186: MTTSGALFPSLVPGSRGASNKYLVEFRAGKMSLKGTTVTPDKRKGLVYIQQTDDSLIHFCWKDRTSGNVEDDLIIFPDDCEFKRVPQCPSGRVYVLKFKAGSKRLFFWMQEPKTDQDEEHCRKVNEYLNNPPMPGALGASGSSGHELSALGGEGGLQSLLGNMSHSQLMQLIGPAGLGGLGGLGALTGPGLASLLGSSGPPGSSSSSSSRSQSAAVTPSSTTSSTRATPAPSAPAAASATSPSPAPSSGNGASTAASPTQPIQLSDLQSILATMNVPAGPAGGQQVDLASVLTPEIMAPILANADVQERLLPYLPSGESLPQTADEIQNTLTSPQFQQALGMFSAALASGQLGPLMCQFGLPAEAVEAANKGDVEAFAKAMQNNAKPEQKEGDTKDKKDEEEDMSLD

Biological target: T1, SIAH1 (Seven in absentia homolog 1) (human) (UniProt Q8IUQ4)
T1 sequence: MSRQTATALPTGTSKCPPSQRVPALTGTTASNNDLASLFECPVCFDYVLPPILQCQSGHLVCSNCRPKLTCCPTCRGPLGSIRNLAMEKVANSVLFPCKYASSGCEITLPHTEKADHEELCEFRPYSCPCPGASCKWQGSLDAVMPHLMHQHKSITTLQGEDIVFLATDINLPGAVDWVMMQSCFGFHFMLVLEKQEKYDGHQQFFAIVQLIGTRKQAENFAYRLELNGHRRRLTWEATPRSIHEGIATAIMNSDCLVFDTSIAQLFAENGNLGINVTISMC
Assay: co-IP; HepG2 and Huh7 cells lysed in ice-cold IP buffer (1% Triton X-100, 150 mM NaCl, 20 mM HEPES, 2 mM EDTA, 5 mM MgCl2, pH 7.4); lysates incubated overnight with the indicated antibodies, bound to beads, eluted, western blot; legends: cells treated with MG132 (15 uM) for 8 h

In the case of “ADRM1 (adhesion regulating molecule 1) (from UniProt Q16186 1-407)”, the binding was “binds”.
